{"source": "PubChem BioAssay AID182", "about": "(DTP/NCI, 2004)", "test_system": "BDF1 mice, P388/ADR leukemia ip, median survival T/C", "assay": "NCI In Vivo Anticancer Drug Screen. Data for tumor model P388 Leukemia resistant to Adriamycin; NSC 123127, Developed at Scr 06 and 41 (intraperitoneal) in B6D2F1 (BDF1) mice", "conditions": "T/C endpoint: median survival time, schedule: Q04DX003 (ip), vehicle: saline, higher T/C = longer survival", "description": "The antitumor activity of compounds was measured in mice bearing transplantable tumors. Survival or tumor size were measured and the results are expressed as the measurement made in the treated group (T) divided by the measurement made in the vehicle treated control group (C). The tumor model used in this assay is P388 Leukemia resistant to Adriamycin; NSC 123127, Developed at Scr 06 and 41 (intraperitoneal) in B6D2F1 (BDF1) mice", "note": "The list does not hold the whole screen: it gathers some chemical classes. Other doses and runs of a compound may be missing. T/C: endpoint of the treated group in % of that of the vehicle group. For survival time, the PubChem record calls one and a half times the control and up active, and a quarter to a half above the control has no call in these data; cut-offs in other NCI protocols can differ. Some entries show no survivor count and are marked so; the dose need not have been tolerated. Schedule codes are those of the source, taken here to give the interval after Q, in days (D) or hours (H), and the number of doses after X."}
{"smiles": "CN(CCCl)CCCl", "values": [{"measurement": "T/C", "setting": "dose: 0.43 mg/kg/injection", "value": "190 % of control [survivor count not shown]"}, {"measurement": "T/C", "setting": "dose: 0.72 mg/kg/injection", "value": "190 % of control [survivor count not shown]"}]}
